This assay is described as follows: qHTS Assay for Lipid Storage Modulators in Drosophila S3 Cells.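 On cell number change: cells counted by Cell Tracker Red CMTPX staining in the red channel.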 The settings on record: BODIPY lipid droplet fluorescence, 18-24 h; for cell number change: measured here: cell count max response, cells fed with added oleic acid. The method, boiled down: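 Laser-scanning cytometry quantifies lipid droplet accumulation (500–530 nm total intensity; droplet/cell object ratio) in oleic acid-fed (400 uM added) Drosophila S3 cells treated with a concentration series. 20 uM Triacsin C defined 100% inhibition.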
On the technique in general: Quantitative high-throughput screening tests each substance at several concentrations.

Where [1] appears, read: measured here: cell number channel AC50, cells fed with added oleic acid.
[2] abbreviates: measured here: lipid fluorescence (Fed channel) AC50, cells fed with added oleic acid.

The structures appear in SMILES notation. Some of the results follow. These are further read-outs of the screen, such as a control signal, another cell line or another target. No call is given for them. The list favours compounds with an active or inconclusive main result. Words in brackets tell the shape of the fitted curve; partial curves, single points and poor fits give uncertain potencies.

As for `COc1ccccc1NS(=O)(=O)c1cc(NC(=O)c2ccc3c(c2)OCCO3)ccc1C`, the cell number change is -1.74%. For the same compound, the AC50 (commonly the concentration giving half of the maximal activity seen) under setting [1] was 2.91 µM [rising, single point]. In addition, the AC50 under setting [2] was 2.91 µM [rising, partial curve].

`O=C(CN1CC(=O)Oc2ccccc21)OCC(=O)c1ccccc1`: the cell number change worked out at 12.6%. The AC50 under setting [2] was 0.731 µM [falling, full curve].

As to `COc1ccc(N2CCN(Cc3cc(=O)oc4cc(C)c(Cl)cc34)CC2)cc1`, the cell number change was 19.7%. In addition, the AC50 under setting [2] was 6.51 µM [rising, single point].

As for `COc1ccc(C2=NOC(C(=O)NCCCn3ccnc3)C2)cc1` (centres undefined), the AC50 reads like this: under setting [1], 5.8 µM [rising, single point]; under setting [2], 0.13 µM [rising, full curve, poor fit].

In the case of `N#CC1(NC(=O)COC(=O)c2ccccc2[N+](=O)[O-])CCCCC1`, the cell number change was 8.66%.

`O=C1/C(=C/c2cccs2)SC(=S)N1CCC(=O)N1CCCCC1CCO` (centres undefined): the cell number change was -22.4%. For the same compound, the AC50 under setting [2] was 29.1 µM [falling, single point].

For the compound `O=C(CCCCCn1c(=S)[nH]c2cc3c(cc2c1=O)OCO3)N1CCN(Cc2ccccc2)CC1`, the AC50 under setting [1] is 0.146 µM [rising, full curve, poor fit].

In the case of `CN=C1CC(C)(C)CC(=O)/C1=C(/O)CCCN1C(=O)c2ccccc2C1=O`, the cell number change was found to be 16.5%. Also, under setting [2], the concentration at half-maximal activity (AC50) is 6.51 µM [falling, single point].

Regarding `Cc1ccc(-c2c(C)c(-c3ccc(F)cc3)nc(N)c2C#N)o1`, the cell number change is -38.2%. Moreover, under setting [1], the AC50 was 16.4 µM [falling, partial curve]. For the same compound, the AC50 under setting [2] was 25.9 µM [falling, single point].

`CC(C)CNC(=O)c1cc(-c2ccc(Br)cc2)on1`: the cell number change turned out to be 28.9%. In addition, the concentration at half-maximal activity (AC50) under setting [2] is 7.31 µM [rising, partial curve].

With `Cc1ccccc1OCC(=O)NS(=O)(=O)c1ccc(Cl)cc1`, the cell number change was -12.1%. For the same compound, the AC50 under setting [2] was 18.4 µM [falling, partial curve].

Regarding `CC(Sc1nnc(Cc2ccccc2)o1)C(=O)Nc1ccccc1[N+](=O)[O-]` (centres undefined), the cell number change is -23%. In addition, the AC50 under setting [2] was 0.00731 µM [falling, full curve, poor fit].

As for `COc1ccc(N2C(=O)C(Cl)=C(N(CCO)Cc3ccccc3)C2=O)cc1`, the cell number change stood at 75.9%. The AC50 under setting [1] is 29.1 µM [rising, single point]. For the same compound, the AC50 under setting [2] was 29.1 µM [rising, single point].

Regarding `O=C(Nc1ccccc1Oc1cccnc1)C1CCCN(Cc2ccc(F)cc2)C1` (centres undefined), the cell number change is -16.4%. The AC50 under setting [2] is 11.6 µM [falling, single point].

Turning to `C=CCn1cnc2c(c1=O)c1nc3ccccc3nc1n2Cc1ccccc1`, the cell number change turned out to be 34.1%. In addition, the AC50 under setting [1] was 0.366 µM [rising, full curve].

In the case of `O=C1C(Cl)=C(N2CCOCC2)C(=O)N1c1ccccc1Cl`, the cell number change is -2.4%.

As for `O=C(COC(=O)c1cccc(Oc2ccccc2)c1)NCc1ccco1`, the cell number change is -27.2%. In addition, the AC50 under setting [2] was 1.84 µM [falling, full curve].

For the compound `COc1ccc(C(=O)NCCCCCC(=O)O)cc1OC`, the AC50 under setting [2] was 1.84 µM [falling, partial curve].

As for `COc1cc(/C=N/N2CCN(Cc3ccc(Cl)cc3)CC2)cc(Br)c1O`, the cell number change is -19.3%.

For `O=C(Nc1ccccc1)c1snc2c(=O)[nH]cnc12`, the cell number change is 12.7%. In addition, the AC50 under setting [2] was 14.6 µM [rising, partial curve, poor fit].

Take `CCn1c(=O)c(=O)n(CC)c2cc(S(=O)(=O)Nc3ccc(C)cc3)ccc21`: the cell number change is 21.3%. In addition, the AC50 under setting [2] is 29.1 µM [rising, single point].

As for `COc1ccc(/C=N/NC(=O)C[n+]2ccccc2)c(OC)c1OC`, the cell number change was found to be 17.2%. Further, the AC50 under setting [1] is 6.51 µM [falling, single point]. Further, the AC50 under setting [2] was 5.17 µM [falling, single point].

Regarding `CCN(Cc1ccncc1)Cc1c(O)ccc2cc(Br)ccc12`, the cell number change is -8.25%. Further, under setting [1], the AC50 is 6.51 µM [falling, single point].

With `O=C(Cn1c(=O)oc2cc(S(=O)(=O)N3CCCC3)ccc21)NC1CCCCC1`, the cell number change came out at 36.5%.

Take `Nc1c(N(Cc2ccccc2)C(=O)CCc2ccccc2)c(=O)[nH]c(=O)n1Cc1ccccc1`: the cell number change amounted to 3.03%. Further, the AC50 under setting [1] is 0.13 µM [rising, full curve, poor fit]. The AC50 under setting [2] was 0.146 µM [rising, full curve, poor fit].

As to `O=C(Cn1nc(C(=O)O)c2ccccc2c1=O)Nc1cc(Cl)ccc1-n1cncn1`, the cell number change was found to be 31.2%.

On to `Nc1ccc(Nc2nc(-c3ccncc3)cs2)cc1`, for which the cell number change was determined as 11.3%. Besides, under setting [2], the half-maximal activity concentration (AC50) is 0.116 µM [rising, full curve, poor fit].

Take `O=C(NC(NC(=S)Nc1cccc(Cl)c1)C(Cl)(Cl)Cl)OCc1ccccc1` (centres undefined): the cell number change is -45.7%. Further, the AC50 under setting [1] is 7.31 µM [falling, partial curve, poor fit]. The AC50 under setting [2] is 6.51 µM [falling, single point].

With `COc1ccccc1NS(=O)(=O)c1ccc(C(=O)NCCCn2ccnc2)cc1`, the cell number change stood at 6.61%. Under setting [2], the AC50 was 16.4 µM [rising, partial curve].

As for `O=C(COc1coc(CN2CCc3ccccc3C2)cc1=O)Nc1cccc(F)c1`, the cell number change came to 2.89%. For the same compound, the AC50 under setting [2] is 0.00461 µM [falling, full curve, poor fit].

For the compound `COc1ccccc1NC(=O)COC(=O)c1ccccc1OCC(=O)Nc1ccc(SC(F)F)cc1`, the cell number change was determined as 42.1%. Further, the AC50 under setting [1] was 4.61 µM [rising, partial curve]. Further, under setting [2], the AC50 is 4.61 µM [rising, single point].

For the compound `O=C(c1ccccc1OC(F)F)N1CCN(S(=O)(=O)c2ccc3c(c2)OCCCO3)CC1`, the cell number change was -20.2%. Further, under setting [2], the AC50 is 0.00461 µM [falling, full curve, poor fit].

Turning to `COC(=O)C(F)(Sc1c(C)n(C)n(-c2ccccc2)c1=O)C(F)(F)F` (centres undefined), the cell number change is -20.4%. In addition, the concentration at half-maximal activity (AC50) under setting [2] is 29.1 µM [falling, single point].

Turning to `O=C(CCC(=O)Nc1ccccc1)NNC(=O)c1ccco1`, the cell number change was -41.2%. Besides, the AC50 under setting [1] is 25.9 µM [falling, partial curve, poor fit].

Take `O=C1C=C(c2cccc(Cl)c2)C[C@@H](c2ccc(Cl)cc2)C1`: the cell number change worked out at 4.54%. Also, the AC50 under setting [2] is 20.6 µM [rising, single point].

Regarding `CCc1ccc(S(=O)(=O)Nc2nccs2)cc1`, the cell number change turned out to be 9.45%. Under setting [2], the AC50 is 6.51 µM [rising, single point].

For the compound `O=C(NCCCN1CCOCC1)c1ccc(NS(=O)(=O)c2ccccc2)cc1`, the cell number change was 2.89%.

Turning to `CN(C)CCCC(C)(O)C(C)(C)c1ccccc1` (centres undefined), the cell number change came to 1.58%. In addition, the AC50 under setting [2] was 32.6 µM [falling, single point].

With `CCOc1ccc(NC(=O)C(C)Sc2nccn2C)cc1` (centres undefined), the cell number change is -14.9%.

For `CCCn1c(=O)c2ccccc2n2c(SCc3c(C(=O)OCC)oc4ccccc34)nnc12`, the cell number change stood at 1.34%.

Take `CCCCCCC(=O)N(O)C1CC(=O)N(Cc2ccccc2)C1=O` (centres undefined): the cell number change was -15.9%. Also, the AC50 under setting [1] is 3.66 µM [falling, partial curve, poor fit]. In addition, the AC50 under setting [2] is 0.461 µM [falling, full curve].

Regarding `CCCCN(C(=O)CN1C(=O)C2CCCCC2C1=O)c1c(N)n(CCC)c(=O)[nH]c1=O` (centres undefined), the cell number change was -49.8%. Further, the AC50 under setting [1] is 29.1 µM [falling, single point].

For `C=CCn1c(=O)c2c3c(sc2n2c(Nc4ccc(C(=O)OCC)cc4)nnc12)CCCC3`, the cell number change is -8.41%. Also, the AC50 under setting [1] was 0.517 µM [rising, full curve]. Moreover, under setting [2], the AC50 is 0.651 µM [rising, full curve].

Take `Cc1nn(C)cc1CNC(=O)c1cccc(F)c1`: the cell number change is -0.651%. For the same compound, the AC50 under setting [2] was 16.4 µM [rising, single point].

For `COc1ccc(OC)c(NC(=O)Cn2cccc2)c1`, the cell number change worked out at 21.8%.

For the compound `CSc1ccccc1NC(=O)CSc1n[nH]c(N)n1`, the cell number change was found to be 19%. Moreover, the AC50 under setting [1] is 0.82 µM [rising, single point].

With `Nc1ncnc2c1ncn2C1OC(C(=O)NC2CC2)C(O)C1O` (centres undefined), the cell number change was 4.46%. Besides, the AC50 under setting [1] is 0.206 µM [falling, full curve, poor fit].

As for `COc1nc(Nc2cccc([N+](=O)[O-])c2)nc(OC)n1`, the cell number change is 2.96%. In addition, under setting [2], the AC50 is 0.0651 µM [falling, full curve, poor fit].

With `O=C(Nc1nccs1)c1cc(-c2ccco2)nc2ccccc12`, the cell number change was determined as 20.6%. Moreover, under setting [2], the AC50 was 1.46 µM [rising, full curve].

On to `Oc1cccc(Nc2nc(NCC3CCCO3)c3ccccc3n2)c1` (centres undefined), for which the cell number change was -88.2%. Besides, the AC50 under setting [1] is 20.6 µM [falling, single point].

Regarding `O=C(O)COc1ccc(NC(=O)c2ccc(NC(=O)c3ccco3)cc2)cc1`, the cell number change is -46.4%.

Consider `COc1ccc2[nH]c3c(=O)n(Cc4ccc(C(=O)N5CCCCCC5)cc4)c(=S)[nH]c3c2c1`, for which the cell number change turned out to be 15.7%. Also, the AC50 under setting [2] was 3.26 µM [rising, single point].

With `NC(CO)C(O)c1ccc([N+](=O)[O-])cc1` (centres undefined), the cell number change was -7.18%. In addition, the AC50 under setting [1] was 0.00517 µM [falling, full curve, poor fit]. The AC50 under setting [2] is 0.00461 µM [falling, full curve, poor fit].

Regarding `CCCSc1ccc([C@H]2N[C@@](Cc3ccccc3)(C(=O)OC)[C@H]3C(=O)N(CC)C(=O)[C@@H]23)cc1`, the cell number change is -14.1%. In addition, the AC50 under setting [2] is 0.58 µM [rising, single point].

As to `O=C(NNC(=O)C1CC1c1ccccc1)c1ccccc1F` (centres undefined), the cell number change was found to be 15.7%. Besides, the AC50 under setting [2] was 25.9 µM [rising, partial curve].

In the case of `O=C(Nc1nc(-c2ccc3c(c2)OCCO3)cs1)C1CCCC1`, the AC50 under setting [2] is 1.64 µM [falling, single point].

Take `CC(CNC(=O)Cn1ccc(NC(=O)OCc2ccccc2)nc1=O)c1ccccc1` (centres undefined): the cell number change is -17.7%. Moreover, the AC50 under setting [2] was 20.6 µM [falling, single point].

For `COc1ccc(CCNC(=O)c2cc3c(=O)n(C)c4ccccc4c3n2C)c(OC)c1`, the cell number change is -8.4%. For the same compound, the AC50 under setting [2] was 0.206 µM [rising, full curve].

Consider `COc1ccc(C2(C)NC(=O)N(CC(=O)Nc3ccc(Br)c(C)c3)C2=O)cc1OC` (centres undefined), for which the cell number change was -17.1%.

For `COc1cccc(S(=O)(=O)NC2CCN(C#N)C2)c1` (centres undefined), the cell number change is -2.53%. Moreover, the AC50 under setting [2] is 0.00517 µM [falling, full curve, poor fit].

For `CCC(=O)c1c[nH]c(C(=O)NCC2CCCO2)c1` (centres undefined), the cell number change was -77.1%. Also, under setting [1], the AC50 is 25.9 µM [falling, partial curve]. Besides, the AC50 under setting [2] is 0.58 µM [falling, single point].

The values are drawn from PubChem BioAssay AID2685 (National Center for Advancing Translational Sciences (NCATS), 2010).
